These are yes or no findings as the source states them, for the method shown. Some results given as binding are weak or reduced against the parent protein; the word gives no strength. Where a sequence is shown, tags or fusion partners need not be part of it.

Binding data for 5 molecules are collected here from US20260209386A1.

Experiment [1] deals with T1, Human PTK7 Protein, His Tag, Acro Biosystems (human) (UniProt Q13308).
T1 sequence: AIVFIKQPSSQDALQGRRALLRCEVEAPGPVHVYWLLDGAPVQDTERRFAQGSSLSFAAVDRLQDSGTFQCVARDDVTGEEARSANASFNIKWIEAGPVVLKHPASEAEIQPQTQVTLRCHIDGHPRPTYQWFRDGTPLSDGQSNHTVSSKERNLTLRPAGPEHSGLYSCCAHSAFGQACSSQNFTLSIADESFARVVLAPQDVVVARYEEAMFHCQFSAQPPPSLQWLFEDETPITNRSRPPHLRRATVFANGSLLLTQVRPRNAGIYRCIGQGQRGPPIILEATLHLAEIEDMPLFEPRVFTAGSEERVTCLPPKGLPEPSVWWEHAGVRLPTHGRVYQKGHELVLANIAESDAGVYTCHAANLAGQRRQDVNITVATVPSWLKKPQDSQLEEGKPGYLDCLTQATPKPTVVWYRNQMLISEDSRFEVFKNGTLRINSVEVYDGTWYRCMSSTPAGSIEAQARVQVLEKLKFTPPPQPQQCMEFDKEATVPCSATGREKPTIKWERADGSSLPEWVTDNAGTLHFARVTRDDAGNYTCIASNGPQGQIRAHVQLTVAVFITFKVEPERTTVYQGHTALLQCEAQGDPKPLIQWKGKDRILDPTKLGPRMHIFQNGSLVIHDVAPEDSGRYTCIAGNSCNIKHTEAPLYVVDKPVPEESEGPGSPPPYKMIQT
The experiment in a line: BLI, anti-human Fc capture, 50 nM PTK7; 2 = substantially similar binding relative to parent. In general terms: In BLI a coated tip is dipped into the sample, and binding shifts an interference pattern.

For experiment [2], the target named is T1, Human PTK7 Protein, His Tag, Acro Biosystems (human). The experiment in a line: BLI (Octet), antibody on anti-human Fc sensor, 50 nM PTK7; grade 1 = pH dependent binding relative to parent.
Experiment [3] shares this target. The experiment in a line: BLI (Octet), antibody on anti-human Fc sensor, 50 nM PTK7, dissociation at pH 7.4 or 5.4; 1 = pH dependent binding relative to parent.
Experiment [4] has the same target. Briefly: BLI (Octet), antibody on anti-human Fc sensor, 50 nM PTK7; 2 = substantially similar binding.
Experiment [5] shares this target. Briefly: BLI, antibody on anti-human Fc sensor, 50 nM PTK7 at pH 7.4, dissociation at pH 7.4 or 5.4; 1 = pH dependent binding relative to parent.

B1: MYT11335 (antibody, V domains shown)
VH: EVQLVESGGGLVQPGGSLRLSCTASGIDLSRYSMGWVRQAPGKGLEWVGIISYGGSTYYASWAKGRFTISRDTSKNTVYLQMNSLRAEDTAVYFCARVGYPGYSGYGYAFDAFDPWGQGTLVTVSS
VL: EIVMTQSPSTLSASVGDRVIITCQSSKSVYNDNWLSWYQQKPGKAPKLLIYGASTLASGVPSRFSGSGSGAEFTLTISSLQPDDFATYYCAGGYSSSSDNGFGQGTKLEIK
Take B1: the binding entry in experiment [1] is listed as “binds”.

B2: MYT11100 (antibody, V domains shown)
VH: EVQLVESGGGLVQPGGSLRLSCTASGLSLSSYWMSWVRQAPGKGLEWVGVISAGGNTYYANWAKGRFTISRDTSKNTVYLQMNSLRAEDTAVYFCARGDDGYTNAAYVSNLWGQGTLVTVSS
VL: EIVMTQSPSTLSASVGDRVIITCQASQSISSWLSWYQQKPGKAPKLLIYKASTLASGVPSRFSGSGSGAEFTLTISSLQPDDFATYYCQSYFDSTTIAFGQGTKLEIK
Regarding B2, in experiment [2], the binding entry was “binds”.

B3: MYT11250 (antibody, V domains shown)
VH: EVQLVESGGGLVQPGGSLRLSCTASGIDLSSYVMGWVRQAPGKGLEWVGYIYGGGGTYYATWARGRFTISRDTSKNTVYLQMNSLRAEDTAVYFCARAAADFYFNLWGQGTLVTVSS
VL: EIVMTQSPSTLSASVGDRVIITCQASQSISSYLAWYQQKPGKAPKLLIYDISDLASGVPSRFSGSGSGAEFTLTISSLQPDDFATYYCQSYYWISNSGAAFGQGTKLEIK
Consider B3, for which the binding result in experiment [3] is recorded as “binds”.

B4: MYT10990 (antibody, V domains shown)
VH: EVQLVESGGGLVQPGGSLRLSCTASGFSLSSYAMGWVRQAPGKGLEWVGFINAGGNTYYANWAKGRFTISRDTSKNTVYLQMNSLRAEDTAVYYCARRYSRASGWYDLWGQGTLVTVSS
VL: EIVMTQSPSTLSASVGDRVIITCQASQSISSYLAWYQQKPGKAPKLLIYAASTLASGVPSRFSGSGSGAEFTLTISSLQPDDFATYYCQSYSYSSGIDYGDVFGQGTKLTVL
In the case of B4, in experiment [4], the binding result is given as “binds”.

B5: MYT11378 (antibody, V domains shown)
VH: EVQLVESGGGLVQPGGSLRLSCTASGIDLSNYAVIWVRQAPGKGLEWVGIIYTYDTTYYANWAKGRFTISRDTSKNTVYLQMNSLRAEDTAVYYCARSFSDISDLIKLWGQGTLVTVSS
VL: EIVMTQSPSTLSASVGDRVIITCQASQSLYNNKDLAWYQQKPGKAPKLLIYEASKLASGVPSRFSGSGSGAEFTLTISSLQPDDFATYYCLGEFSCGSGDCLAFGQGTKLTVL
B5: the binding entry in experiment [5] is on record as “binds”.
